Percent effect of library compounds

Protein sequences, listed by entry. Tags and fused reporters are not part of them.
UniProt P9WNZ1, whole entry: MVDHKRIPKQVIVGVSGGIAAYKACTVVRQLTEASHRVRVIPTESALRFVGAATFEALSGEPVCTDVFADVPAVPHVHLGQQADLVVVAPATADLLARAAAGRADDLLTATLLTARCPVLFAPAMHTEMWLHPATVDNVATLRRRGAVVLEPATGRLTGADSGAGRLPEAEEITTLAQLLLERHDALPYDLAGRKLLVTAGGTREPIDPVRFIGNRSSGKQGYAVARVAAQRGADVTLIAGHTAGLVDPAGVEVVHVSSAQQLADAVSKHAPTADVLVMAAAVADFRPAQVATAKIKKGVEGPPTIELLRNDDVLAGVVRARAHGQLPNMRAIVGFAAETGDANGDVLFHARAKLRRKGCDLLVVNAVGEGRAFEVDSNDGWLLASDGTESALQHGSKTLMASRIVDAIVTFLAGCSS

Data taken from ChEMBL document CHEMBL3988442, “University of Dundee, Small-Polar-MMV Screening Library” (2021).

Leishmania in macrophages: 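Cell assay of Leishmania donovani living inside macrophages; the read-out is not stated. Compounds at 30 µM. The record gives no direction; compounds that gave an IC50 in retests scored well above the rest, so higher reads as stronger inhibition. Size under these conditions: about 69,000 compounds, about 1,000 of them at 50% or above in at least one test.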
CoaBC: 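Enzyme assay of CoaBC with a phosphate dye (Biomol Green) read at 650 nm. Target: Coenzyme A biosynthesis protein CoaBC, Mycobacterium tuberculosis (UniProt P9WNZ1). Compounds at 30 µM. Direction is inferred from only a few compounds that gave an IC50; most scored high, so higher reads as stronger inhibition. Most strong results did not repeat in a second test. About 67,000 compounds were tested under these conditions; 0.06% (about 40) showed 50% or more at least once.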

Each number is a percent effect as filed. The controls that fix the scale are not given in the record; negative values are as filed. Compounds were drawn at random from those tested, without regard to their results. Two or more numbers in one place are separate tests of the same structure; such repeats can differ widely.

{"compound": "CN1CCC(N2CCOC[C@H]2c2nc(C(C)(C)C)c[nH]2)CC1", "Leishmania in macrophages": -56.34, "CoaBC": -8.168}
{"compound": "CNC(=O)Cc1ccc(-n2ccnc2-c2ccc(C(=O)O)s2)cc1", "Leishmania in macrophages": 15.4, "CoaBC": -4.604}
{"compound": "Cc1nn(C(C)C)c(C)c1CN1CCN(C2CCCCC2)C(=O)C1", "CoaBC": 0.2421}
{"compound": "c1cc(-c2cnc(NC3CC3)nc2[C@H]2CCCO2)ccn1", "Leishmania in macrophages": 20.25, "CoaBC": -1.632}
{"compound": "Cn1ccc2ccnc(CC3CN(C(=O)C4CCC(F)(F)CC4)C3)c21", "Leishmania in macrophages": 32.93, "CoaBC": 2.5}
{"compound": "O=C(O)C(F)(F)F.[H][C@@]12C[C@H](C(=O)N3CCCCO3)CN(CC3CCOCC3)[C@]1([H])CCO2", "Leishmania in macrophages": 14.67}
{"compound": "CCC(=O)N1CCC2(CC1)CNC(=O)c1cc(C)ccc1O2", "Leishmania in macrophages": -8.294, "CoaBC": -0.1239}
{"compound": "COc1cccc2ccc(CN3CCN(c4cccnc4)CC3)nc12", "Leishmania in macrophages": 12.82, "CoaBC": 3.676}
{"compound": "CC(CN1CCCC1=O)NC(=O)Nc1ccccc1Cn1cccn1", "stereo": "stereo not given", "Leishmania in macrophages": 13.3, "CoaBC": 2.992}
{"compound": "Cc1cc(Br)ccc1CNC(=O)C1(O)CCSCC1", "Leishmania in macrophages": 7.321, "CoaBC": 7.589}
{"compound": "CCOc1cc(CN(C)CC(=O)O)ccc1OC(F)F", "CoaBC": 2.538}
{"compound": "Cn1ccnc1CN1CCCC2(CCN(CC3CCCO3)CC2)C1", "stereo": "stereo not given", "CoaBC": 2.637}
{"compound": "COCCN(Cc1ccco1)c1ncc(C#N)cc1Cl", "Leishmania in macrophages": -4.779, "CoaBC": 6.674}
{"compound": "Cc1cnc(N2CCCC(c3ccccc3)C2)nc1-c1ncnn1C", "stereo": "stereo not given", "Leishmania in macrophages": -22.82, "CoaBC": 3.64}
{"compound": "C[C@@H]1CN(Cc2cccnc2)C[C@]12CCN(CCN1CCCC1)C2=O", "CoaBC": 0.9412}
{"compound": "COc1ccc(NS(=O)(=O)c2cnc(NC(C)=O)s2)cc1", "Leishmania in macrophages": -51.74, "CoaBC": 1.386}
{"compound": "CNc1cncc(C2CCCN2C(=O)Cn2ccnc2C)n1", "stereo": "stereo not given", "Leishmania in macrophages": 43.14, "CoaBC": 0.7177}
{"compound": "C=C(C)COc1cccc(CNC(COC)c2ccnn2C)c1", "stereo": "stereo not given", "Leishmania in macrophages": -79.66, "CoaBC": 3.016}
{"compound": "CCN(Cc1noc(C2CC2)n1)C(=O)c1onc2ccccc12", "Leishmania in macrophages": 17.03, "CoaBC": 3.802}
{"compound": "COCCCN1C(=O)CC[C@H]2CN(c3ccnc4ccccc34)CC[C@H]21", "CoaBC": 6.584}
{"compound": "COC(=O)c1ccc(CN[C@@H]2COC[C@H]2Cc2cc(C)no2)cc1.O=C(O)CC(O)(CC(=O)O)C(=O)O", "Leishmania in macrophages": -0.7953}
{"compound": "Cc1ncc(COc2ccc(N(C)S(C)(=O)=O)cc2)s1", "Leishmania in macrophages": -21.9}
{"compound": "COc1c(CNCc2ccc(C(=O)NC3CC3)cc2)c(C)nn1C.Cl", "Leishmania in macrophages": 38.76}
{"compound": "Cn1cc(NS(=O)(=O)c2ccc(F)c(F)c2)ccc1=O", "Leishmania in macrophages": 32.65, "CoaBC": 7.908}
{"compound": "CCCN1CCN(Cc2cn(CCC(N)=O)c3ccccc23)CC1", "Leishmania in macrophages": 3.97, "CoaBC": -0.8547}
{"compound": "c1cncc(CN2CCc3c(CNc4nccs4)n[nH]c3C2)c1", "Leishmania in macrophages": 11.71, "CoaBC": 7.018}
{"compound": "[H][C@@]12COC[C@@H](C(=O)NC)[C@]1([H])CN(C(=O)c1ccc(CC)cc1)C2", "Leishmania in macrophages": "19.38 and 33.07"}
{"compound": "O=C(c1ccc(F)cc1)N1CCN2C[C@H](OCc3ccccn3)C[C@H]2C1", "CoaBC": 1.799}
{"compound": "OC1(CNC2CCN(Cc3ccncc3)CC2)CCc2ccccc21", "stereo": "stereo not given", "Leishmania in macrophages": 13.37, "CoaBC": -17.51}
{"compound": "CNc1cc(N2CCCC2CNCc2cnc(C)s2)ncn1", "stereo": "stereo not given", "Leishmania in macrophages": 45.11, "CoaBC": 1.279}
{"compound": "Cn1cccc1C(=O)N1CCC2(CC1)CN(S(C)(=O)=O)c1ccccc12", "Leishmania in macrophages": 5.918, "CoaBC": 1.158}
{"compound": "[H][C@]12CC[C@@]3(N=C(CC)N(CCOC)C3=O)[C@@]1([H])CN(C(=O)NCC(C)C)C2", "Leishmania in macrophages": -6.463}
{"compound": "Cc1cc(CN2CC[C@@H]3O[C@@H](c4nnc(C)o4)C[C@H]3C2)no1", "CoaBC": 1.733}
{"compound": "CCCN1CCN(C(=O)Cn2nc(C(F)(F)F)c(Br)c2C2CC2)CC1", "Leishmania in macrophages": 44.34, "CoaBC": -2.892}
{"compound": "COc1c(CNC2(c3noc(C)n3)CCC2)c(C)nn1C.Cl", "Leishmania in macrophages": 11.86}
{"compound": "Cc1nc2ccccc2nc1CN1CCc2c(nc(C3CC3)n2C)C1", "Leishmania in macrophages": -34.13, "CoaBC": 2.181}
{"compound": "COCC(=O)N1CCN(CCn2cccn2)c2nc(C)ccc2C1.O=C(O)C(F)(F)F", "Leishmania in macrophages": 20.93}
{"compound": "COc1cccc(CC(=O)N2CCCC(c3nncn3C)C2)c1", "stereo": "stereo not given", "Leishmania in macrophages": 24.31, "CoaBC": -2.445}
{"compound": "Cn1cc(CN2CCC(F)(F)C3(CCN(c4ncccn4)C3)C2)cn1", "stereo": "stereo not given", "CoaBC": -1.976}
{"compound": "Cc1cnc(C)c(N2CCN(CC3CCCO3)CC2)n1", "stereo": "stereo not given", "Leishmania in macrophages": 40.79, "CoaBC": 0.6075}
{"compound": "COc1ccc2nc(C3CC3)cc(C(=O)NCC(=O)N(C)C)c2c1", "Leishmania in macrophages": 19.3}
{"compound": "CC(C(=O)NCc1ccc(-n2cncn2)nc1)n1ccnc1", "stereo": "stereo not given", "Leishmania in macrophages": 0.5239, "CoaBC": 12.31}